Data source: PubChem BioAssay AID720505 (Drosophila RNAi Screening Center, 2013)

Aim: 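Genes needed for store-operated calcium entry in fly cells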 (primary screen)
Cells: Drosophila S2R+ cells
Knock-down reagent: long dsRNA against Drosophila genes
Treatment: thapsigargin (2 µM) in calcium-free buffer to empty internal stores, then 2 mM calcium added back
Read-out: 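Stores emptied by 2 µM thapsigargin without calcium, then 2 mM calcium re-added; fluo-4 fluorescence followed by FLIPR in 384-well plates, per-well averaged endpoint, raw; two screen passes, some wells retested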
Reading the numbers: calcium signal and retest calcium signal: higher = more calcium entry after store depletion
Active means: 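Knock-downs counted as hits when calcium entry dropped relative to STIM1 positive and Rho1 negative controls present on each plate; roughly 1500 genes called, with reductions of differing size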
Meaning of the calls: active = called as lowering calcium entry; inactive = not called
The screen tested about 20,000 reagents; this is a random part of those with a known target gene and a result. Over the whole deposit, about 2,100 (10%) were called active. 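Raw plate signals without normalisation; calls rest on control-based scores that were not deposited; replicate 2 separates called from uncalled poorly.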 A number with no mark means an inactive call. A plus sign joins genes that one reagent is predicted to hit. Not given: the amount of reagent, the time to read-out.

CR14117 [DRSC10121] — calcium signal, replicate 1: 58.4; calcium signal, replicate 2: 94.9
Swt1 [DRSC20028] — calcium signal, replicate 1: 153; calcium signal, replicate 2: 141
mRpS33 [DRSC14239] — calcium signal, replicate 1: 109; calcium signal, replicate 2: 162
msk [DRSC11340] — calcium signal, replicate 1: 114; calcium signal, replicate 2: 97.1
smog [DRSC00334] — calcium signal, replicate 1: 121; calcium signal, replicate 2: 91
smog [DRSC00335] — calcium signal, replicate 1: 143; calcium signal, replicate 2: 110
smog [DRSC23053] — calcium signal, replicate 1: 99.8; calcium signal, replicate 2: 123
deltaCOP [DRSC18760] — calcium signal, replicate 1: 67.6 (active); calcium signal, replicate 2: 101
CG30050 [DRSC05342] — calcium signal, replicate 1: 104; calcium signal, replicate 2: 101
CG43349 [DRSC00039] — calcium signal, replicate 1: 115; calcium signal, replicate 2: 139; retest calcium signal, replicate 1: 70.3; retest calcium signal, replicate 2: 96.6
Naa60 [DRSC10301] — calcium signal, replicate 1: 99.8; calcium signal, replicate 2: 108
CG15262 [DRSC01975] — calcium signal, replicate 1: 104; calcium signal, replicate 2: 115
CG30431 [DRSC04902] — calcium signal, replicate 1: 140; calcium signal, replicate 2: 106
CG30431 [DRSC04904] — calcium signal, replicate 1: 169; calcium signal, replicate 2: 264
CG9961 [DRSC00738] — calcium signal, replicate 1: 145; calcium signal, replicate 2: 117
CG9961 [DRSC23343] — calcium signal, replicate 1: 102; calcium signal, replicate 2: 115
CG5793 + Obp93a [DRSC15220] — calcium signal, replicate 1: 130; calcium signal, replicate 2: 149
mat [DRSC08376] — calcium signal, replicate 1: 98.9; calcium signal, replicate 2: 111
mat [DRSC22841] — calcium signal, replicate 1: 98; calcium signal, replicate 2: 107

Sorted by “calcium signal, replicate 1” (high to low): some entries from above
smog [DRSC00335] — calcium signal, replicate 1: 143; calcium signal, replicate 2: 110
smog [DRSC00334] — calcium signal, replicate 1: 121; calcium signal, replicate 2: 91
msk [DRSC11340] — calcium signal, replicate 1: 114; calcium signal, replicate 2: 97.1

The list goes on:
udd [DRSC06720] — calcium signal, replicate 1: 128; calcium signal, replicate 2: 112
CG13751 [DRSC06422] — calcium signal, replicate 1: 83.3; calcium signal, replicate 2: 118
mr [DRSC04332] — calcium signal, replicate 1: 106; calcium signal, replicate 2: 83.6
mr [DRSC22856] — calcium signal, replicate 1: 90.6; calcium signal, replicate 2: 88.3
CG2611 [DRSC02710] — calcium signal, replicate 1: 87.5; calcium signal, replicate 2: 109
krimp [DRSC06578] — calcium signal, replicate 1: 181; calcium signal, replicate 2: 78.6
Ugt317A1 [DRSC04470] — calcium signal, replicate 1: 103; calcium signal, replicate 2: 135
HHEX [DRSC16186] — calcium signal, replicate 1: 152; calcium signal, replicate 2: 120
CG9010 [DRSC07320] — calcium signal, replicate 1: 149; calcium signal, replicate 2: 97.3
SP [DRSC09664] — calcium signal, replicate 1: 84.2; calcium signal, replicate 2: 112
CG10694 [DRSC14263] — calcium signal, replicate 1: 223; calcium signal, replicate 2: 185
Su(z)12 [DRSC11293] — calcium signal, replicate 1: 90.3; calcium signal, replicate 2: 97.3
Atg9 [DRSC06848] — calcium signal, replicate 1: 184; calcium signal, replicate 2: 92.7
CG9733 [DRSC16549] — calcium signal, replicate 1: 139; calcium signal, replicate 2: 120
Sbds [DRSC10992] — calcium signal, replicate 1: 110; calcium signal, replicate 2: 164
Achl [DRSC06665] — calcium signal, replicate 1: 93.1; calcium signal, replicate 2: 140
